These are yes or no findings as the source states them, for the method shown. For part of these data: In cells and extracts the contact can be indirect. Some entries that bind do so weakly or less than the wild type. For part of these data: Tags and fused reporters may be left off the sequences shown. Each block holds one molecule with its values, some of them ahead of it.
Assays:
[1] = target: T1, Myc-MINDY1 full length (UniProt Q8N5J2); experiment: co-IP; HEK293 cells transfected with 2 µg Myc-MINDY1 together with HA-ERα full length or mutants; 24 h; NP-40 lysis buffer; IP with Myc antibody, detection with HA antibody
T1 sequence: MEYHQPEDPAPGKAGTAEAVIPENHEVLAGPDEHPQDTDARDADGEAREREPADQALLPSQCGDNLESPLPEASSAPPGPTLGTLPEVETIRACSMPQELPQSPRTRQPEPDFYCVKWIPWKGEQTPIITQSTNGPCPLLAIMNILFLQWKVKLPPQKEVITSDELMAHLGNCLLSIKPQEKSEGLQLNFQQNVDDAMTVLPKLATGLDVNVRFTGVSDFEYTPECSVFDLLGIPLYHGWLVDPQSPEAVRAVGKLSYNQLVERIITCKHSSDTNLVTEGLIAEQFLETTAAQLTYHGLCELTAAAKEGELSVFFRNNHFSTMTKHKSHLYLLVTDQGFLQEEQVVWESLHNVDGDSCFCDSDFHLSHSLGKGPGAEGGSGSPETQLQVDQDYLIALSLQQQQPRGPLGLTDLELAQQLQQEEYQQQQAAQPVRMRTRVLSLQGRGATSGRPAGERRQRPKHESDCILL

Sequences of proteins named here, by UniProt entry; tags and fusion partners are left off.
UniProt P03372: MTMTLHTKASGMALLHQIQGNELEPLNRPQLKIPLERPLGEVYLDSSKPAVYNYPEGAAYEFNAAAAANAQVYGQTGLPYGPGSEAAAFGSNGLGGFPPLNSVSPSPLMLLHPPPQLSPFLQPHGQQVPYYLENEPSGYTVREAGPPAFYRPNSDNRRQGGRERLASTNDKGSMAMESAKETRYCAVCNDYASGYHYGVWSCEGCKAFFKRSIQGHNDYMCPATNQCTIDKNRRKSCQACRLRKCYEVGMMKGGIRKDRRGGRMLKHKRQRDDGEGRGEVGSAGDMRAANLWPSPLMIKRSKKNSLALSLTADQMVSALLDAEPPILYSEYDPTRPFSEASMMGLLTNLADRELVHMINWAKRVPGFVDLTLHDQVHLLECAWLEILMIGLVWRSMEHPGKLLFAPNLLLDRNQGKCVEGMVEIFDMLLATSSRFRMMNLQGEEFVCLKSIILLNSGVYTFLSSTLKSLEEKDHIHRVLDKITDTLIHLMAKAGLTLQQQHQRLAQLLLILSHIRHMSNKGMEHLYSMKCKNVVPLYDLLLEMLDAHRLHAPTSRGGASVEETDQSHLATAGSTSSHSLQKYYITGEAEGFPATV

[2] = target: Estrogen receptor alpha (endogenous, MCF-7 cells) (human (endogenous in MCF-7)) (UniProt P03372); experiment: co-IP; endogenous proteins from MCF-7 lysate; legend: RIPA lysis buffer, antibody as indicated; methods: NP-40 lysis buffer, 4 °C overnight, protein A/G PLUS-Agarose beads; western blot
[3] = target: GST-ERα (UniProt P03372); experiment: pull-down; purified His-MINDY1 incubated with GST-ERα or GST protein; glutathione agarose beads, overnight; washed with GST binding buffer; bound MINDY1 detected by western blot; both purified

binding [1]: binds
Molecule: HA-ERα full length (from UniProt P03372 1-595) (receptor)

binding [2]: binds
B1: MINDY1 (endogenous, MCF-7 cells) (enzyme, UniProt Q8N5J2 1-469)
chain: MEYHQPEDPAPGKAGTAEAVIPENHEVLAGPDEHPQDTDARDADGEAREREPADQALLPSQCGDNLESPLPEASSAPPGPTLGTLPEVETIRACSMPQELPQSPRTRQPEPDFYCVKWIPWKGEQTPIITQSTNGPCPLLAIMNILFLQWKVKLPPQKEVITSDELMAHLGNCLLSIKPQEKSEGLQLNFQQNVDDAMTVLPKLATGLDVNVRFTGVSDFEYTPECSVFDLLGIPLYHGWLVDPQSPEAVRAVGKLSYNQLVERIITCKHSSDTNLVTEGLIAEQFLETTAAQLTYHGLCELTAAAKEGELSVFFRNNHFSTMTKHKSHLYLLVTDQGFLQEEQVVWESLHNVDGDSCFCDSDFHLSHSLGKGPGAEGGSGSPETQLQVDQDYLIALSLQQQQPRGPLGLTDLELAQQLQQEEYQQQQAAQPVRMRTRVLSLQGRGATSGRPAGERRQRPKHESDCILL

binding [3]: binds
B2: Purified His-MINDY1 (enzyme, UniProt Q8N5J2 1-469)
chain: MEYHQPEDPAPGKAGTAEAVIPENHEVLAGPDEHPQDTDARDADGEAREREPADQALLPSQCGDNLESPLPEASSAPPGPTLGTLPEVETIRACSMPQELPQSPRTRQPEPDFYCVKWIPWKGEQTPIITQSTNGPCPLLAIMNILFLQWKVKLPPQKEVITSDELMAHLGNCLLSIKPQEKSEGLQLNFQQNVDDAMTVLPKLATGLDVNVRFTGVSDFEYTPECSVFDLLGIPLYHGWLVDPQSPEAVRAVGKLSYNQLVERIITCKHSSDTNLVTEGLIAEQFLETTAAQLTYHGLCELTAAAKEGELSVFFRNNHFSTMTKHKSHLYLLVTDQGFLQEEQVVWESLHNVDGDSCFCDSDFHLSHSLGKGPGAEGGSGSPETQLQVDQDYLIALSLQQQQPRGPLGLTDLELAQQLQQEEYQQQQAAQPVRMRTRVLSLQGRGATSGRPAGERRQRPKHESDCILL

Reference: article PMC8514509
